These are yes or no findings as the source states them, for the method shown. In cells and extracts the contact can be indirect. These calls come from enrichment with a bait or labelling near it, and not all partners need be listed. Tags and fused reporters may be left off the sequences shown.
Target: FLAG-hMBD4 (SF-TAP-hMBD4), human full-length MBD4 (human) (UniProt O95243)
Test: affinity purification with mass spectrometry; FLAG-MBD4 purified on anti-FLAG beads from MNase-digested nuclear extract of transfected 293T cells; SDS-PAGE, excised bands, Mascot search; control: empty vector

By UniProt entry, the sequences of proteins in these tests, tags left out.
UniProt O95243: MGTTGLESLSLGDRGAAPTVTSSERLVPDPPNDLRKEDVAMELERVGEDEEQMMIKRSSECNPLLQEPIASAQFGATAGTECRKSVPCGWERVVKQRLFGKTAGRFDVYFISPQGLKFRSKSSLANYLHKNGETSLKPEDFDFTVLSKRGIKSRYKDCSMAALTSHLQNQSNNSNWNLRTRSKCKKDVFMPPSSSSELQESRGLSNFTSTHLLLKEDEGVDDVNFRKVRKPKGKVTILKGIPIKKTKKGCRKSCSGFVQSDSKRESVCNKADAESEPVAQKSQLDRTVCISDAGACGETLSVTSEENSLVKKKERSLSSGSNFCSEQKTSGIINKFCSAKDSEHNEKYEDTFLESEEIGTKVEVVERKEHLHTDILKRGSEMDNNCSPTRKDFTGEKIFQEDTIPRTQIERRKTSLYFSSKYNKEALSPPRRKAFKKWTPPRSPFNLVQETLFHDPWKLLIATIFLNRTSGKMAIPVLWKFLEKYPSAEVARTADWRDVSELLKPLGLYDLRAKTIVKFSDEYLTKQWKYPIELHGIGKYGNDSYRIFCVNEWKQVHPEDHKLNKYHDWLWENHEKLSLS

B1: UHRF1 (Ubiquitin-like, with PHD and RING finger domains 1), found by mass spectrometry in the FLAG-MBD4 purification (protein, UniProt Q96T88 1-793)
chain: MWIQVRTMDGRQTHTVDSLSRLTKVEELRRKIQELFHVEPGLQRLFYRGKQMEDGHTLFDYEVRLNDTIQLLVRQSLVLPHSTKERDSELSDTDSGCCLGQSESDKSSTHGEAAAETDSRPADEDMWDETELGLYKVNEYVDARDTNMGAWFEAQVVRVTRKAPSRDEPCSSTSRPALEEDVIYHVKYDDYPENGVVQMNSRDVRARARTIIKWQDLEVGQVVMLNYNPDNPKERGFWYDAEISRKRETRTARELYANVVLGDDSLNDCRIIFVDEVFKIERPGEGSPMVDNPMRRKSGPSCKHCKDDVNRLCRVCACHLCGGRQDPDKQLMCDECDMAFHIYCLDPPLSSVPSEDEWYCPECRNDASEVVLAGERLRESKKKAKMASATSSSQRDWGKGMACVGRTKECTIVPSNHYGPIPGIPVGTMWRFRVQVSESGVHRPHVAGIHGRSNDGAYSLVLAGGYEDDVDHGNFFTYTGSGGRDLSGNKRTAEQSCDQKLTNTNRALALNCFAPINDQEGAEAKDWRSGKPVRVVRNVKGGKNSKYAPAEGNRYDGIYKVVKYWPEKGKSGFLVWRYLLRRDDDEPGPWTKEGKDRIKKLGLTMQYPEGYLEALANREREKENSKREEEEQQEGGFASPRTGKGKWKRKSAGGGPSRAGSPRRTSKKTKVEPYSLTAQQSSLIREDKSNAKLWNEVLASLKDRPASGSPFQLFLSKVEETFQCICCQELVFRPITTVCQHNVCKDCLDRSFRAQVFSCPACRYDLGRSYAMQVNQPLQTVLNQLFPGYGNGR
binding: binds

Source: article PMC4964934
